The values below come from article PMC9935549.

By UniProt entry, the sequences of proteins in these tests, tags left out.
UniProt O75533: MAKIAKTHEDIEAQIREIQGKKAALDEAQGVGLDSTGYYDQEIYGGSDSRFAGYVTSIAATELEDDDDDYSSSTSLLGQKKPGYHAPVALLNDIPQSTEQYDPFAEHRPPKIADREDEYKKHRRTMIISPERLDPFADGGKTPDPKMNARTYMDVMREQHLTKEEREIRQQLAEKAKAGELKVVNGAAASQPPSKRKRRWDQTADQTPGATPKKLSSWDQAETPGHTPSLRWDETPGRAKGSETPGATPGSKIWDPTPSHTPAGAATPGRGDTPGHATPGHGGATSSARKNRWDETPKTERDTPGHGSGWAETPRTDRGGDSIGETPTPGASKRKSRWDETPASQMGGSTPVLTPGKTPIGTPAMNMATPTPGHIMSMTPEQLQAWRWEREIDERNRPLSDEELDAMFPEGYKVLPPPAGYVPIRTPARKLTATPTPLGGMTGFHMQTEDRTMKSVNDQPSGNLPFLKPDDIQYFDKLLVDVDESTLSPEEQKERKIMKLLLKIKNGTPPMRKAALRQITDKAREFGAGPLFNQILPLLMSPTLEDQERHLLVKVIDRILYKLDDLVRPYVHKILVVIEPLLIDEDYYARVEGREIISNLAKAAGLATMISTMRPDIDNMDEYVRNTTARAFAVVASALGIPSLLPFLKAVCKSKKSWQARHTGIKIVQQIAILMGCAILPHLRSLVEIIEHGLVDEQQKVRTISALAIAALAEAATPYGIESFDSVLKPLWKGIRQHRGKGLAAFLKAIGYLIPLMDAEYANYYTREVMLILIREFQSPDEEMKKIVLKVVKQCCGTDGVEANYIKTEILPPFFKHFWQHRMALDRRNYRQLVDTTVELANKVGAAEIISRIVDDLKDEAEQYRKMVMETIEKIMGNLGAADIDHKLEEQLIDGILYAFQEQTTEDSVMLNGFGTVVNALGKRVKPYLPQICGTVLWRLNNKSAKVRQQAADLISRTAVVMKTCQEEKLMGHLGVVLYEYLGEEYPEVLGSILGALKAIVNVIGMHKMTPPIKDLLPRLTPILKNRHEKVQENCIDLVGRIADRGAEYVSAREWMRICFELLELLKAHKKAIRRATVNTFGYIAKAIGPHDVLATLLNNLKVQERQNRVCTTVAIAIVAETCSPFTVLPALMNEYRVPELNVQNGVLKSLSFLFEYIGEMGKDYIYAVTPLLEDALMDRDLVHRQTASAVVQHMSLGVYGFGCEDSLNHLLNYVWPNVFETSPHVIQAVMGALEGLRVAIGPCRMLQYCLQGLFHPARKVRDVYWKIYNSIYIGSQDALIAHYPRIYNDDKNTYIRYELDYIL

The experiment has as its target Flag-tagged SF3B1 (full-length) (human) (UniProt O75533). Kind of experiment: affinity purification with mass spectrometry; Flag-SF3B1 expressed in HEK293F; cleared lysate on anti-Flag M2 affinity gel, 2 h, 4 °C; lysis buffer 20 mM HEPES-KOH pH 7.9, 150 mM NaCl, 1.5 mM MgCl2, 0.05% NP-40; eluted with FLAG peptide, trypsin digest, mass spectrometry.

Results are given in words; binding and its absence hold for the method and conditions named. Binding seen in cells or lysates may run through a third protein. These calls come from enrichment with a bait or labelling near it, and not all partners need be listed.

B1: DDX46 (endogenous, HEK293F) (protein, UniProt Q7L014 1-1031)
chain: MGRESRHYRKRSASRGRSGSRSRSRSPSDKRSKRGDDRRSRSRDRDRRRERSRSRDKRRSRSRDRKRLRRSRSRERDRSRERRRSRSRDRRRSRSRSRGRRSRSSSPGNKSKKTENRSRSKEKTDGGESSKEKKKDKDDKEDEKEKDAGNFDQNKLEEEMRKRKERVEKWREEQRKKAMENIGELKKEIEEMKQGKKWSLEDDDDDEDDPAEAEKEGNEMEGEELDPLDAYMEEVKEEVKKFNMRSVKGGGGNEKKSGPTVTKVVTVVTTKKAVVDSDKKKGELMENDQDAMEYSSEEEEVDLQTALTGYQTKQRKLLEPVDHGKIEYEPFRKNFYVEVPELAKMSQEEVNVFRLEMEGITVKGKGCPKPIKSWVQCGISMKILNSLKKHGYEKPTPIQTQAIPAIMSGRDLIGIAKTGSGKTIAFLLPMFRHIMDQRSLEEGEGPIAVIMTPTRELALQITKECKKFSKTLGLRVVCVYGGTGISEQIAELKRGAEIIVCTPGRMIDMLAANSGRVTNLRRVTYVVLDEADRMFDMGFEPQVMRIVDNVRPDRQTVMFSATFPRAMEALARRILSKPIEVQVGGRSVVCSDVEQQVIVIEEEKKFLKLLELLGHYQESGSVIIFVDKQEHADGLLKDLMRASYPCMSLHGGIDQYDRDSIINDFKNGTCKLLVATSVAARGLDVKHLILVVNYSCPNHYEDYVHRAGRTGRAGNKGYAYTFITEDQARYAGDIIKALELSGTAVPPDLEKLWSDFKDQQKAEGKIIKKSSGFSGKGFKFDETEQALANERKKLQKAALGLQDSDDEDAAVDIDEQIESMFNSKKRVKDMAAPGTSSVPAPTAGNAEKLEIAKRLALRINAQKNLGIESQDVMQQATNAILRGGTILAPTVSAKTIAEQLAEKINAKLNYVPLEKQEEERQDGGQNESFKRYEEELEINDFPQTARWKVTSKEALQRISEYSEAAITIRGTYFPPGKEPKEGERKIYLAIESANELAVQKAKAEITRLIKEELIRLQNSYQPTNKGRYKVL
On to B1, for which the binding result is on record as “binds”.

B2: DDX42 (endogenous, HEK293F) (protein, UniProt Q86XP3 1-938)
chain: MNWNKGGPGTKRGFGFGGFAISAGKKEEPKLPQQSHSAFGATSSSSGFGKSAPPQLPSFYKIGSKRANFDEENAYFEDEEEDSSNVDLPYIPAENSPTRQQFHSKPVDSDSDDDPLEAFMAEVEDQAARDMKRLEEKDKERKNVKGIRDDIEEEDDQEAYFRYMAENPTAGVVQEEEEDNLEYDSDGNPIAPTKKIIDPLPPIDHSEIDYPPFEKNFYNEHEEITNLTPQQLIDLRHKLNLRVSGAAPPRPGSSFAHFGFDEQLMHQIRKSEYTQPTPIQCQGVPVALSGRDMIGIAKTGSGKTAAFIWPMLIHIMDQKELEPGDGPIAVIVCPTRELCQQIHAECKRFGKAYNLRSVAVYGGGSMWEQAKALQEGAEIVVCTPGRLIDHVKKKATNLQRVSYLVFDEADRMFDMGFEYQVRSIASHVRPDRQTLLFSATFRKKIEKLARDILIDPIRVVQGDIGEANEDVTQIVEILHSGPSKWNWLTRRLVEFTSSGSVLLFVTKKANAEELANNLKQEGHNLGLLHGDMDQSERNKVISDFKKKDIPVLVATDVAARGLDIPSIKTVINYDVARDIDTHTHRIGRTGRAGEKGVAYTLLTPKDSNFAGDLVRNLEGANQHVSKELLDLAMQNAWFRKSRFKGGKGKKLNIGGGGLGYRERPGLGSENMDRGNNNVMSNYEAYKPSTGAMGDRLTAMKAAFQSQYKSHFVAASLSNQKAGSSAAGASGWTSAGSLNSVPTNSAQQGHNSPDSPVTSAAKGIPGFGNTGNISGAPVTYPSAGAQGVNNTASGNNSREGTGGSNGKRERYTENRGSSRHSHGETGNRHSDSPRHGDGGRHGDGYRHPESSSRHTDGHRHGENRHGGSAGRHGENRGANDGRNGESRKEAFNRESKMEPKMEPKVDSSKMDKVDSKTDKTADGFAVPEPPKRKKSRWDS
Regarding B2, the binding result was “binds”.
